{"sequences": {"note": "By UniProt entry, the sequences of proteins in these tests, tags left out. Where a name states a change or a piece, a line headed by the entry shows the natural chain unless it says otherwise.", "UniProt P51450": "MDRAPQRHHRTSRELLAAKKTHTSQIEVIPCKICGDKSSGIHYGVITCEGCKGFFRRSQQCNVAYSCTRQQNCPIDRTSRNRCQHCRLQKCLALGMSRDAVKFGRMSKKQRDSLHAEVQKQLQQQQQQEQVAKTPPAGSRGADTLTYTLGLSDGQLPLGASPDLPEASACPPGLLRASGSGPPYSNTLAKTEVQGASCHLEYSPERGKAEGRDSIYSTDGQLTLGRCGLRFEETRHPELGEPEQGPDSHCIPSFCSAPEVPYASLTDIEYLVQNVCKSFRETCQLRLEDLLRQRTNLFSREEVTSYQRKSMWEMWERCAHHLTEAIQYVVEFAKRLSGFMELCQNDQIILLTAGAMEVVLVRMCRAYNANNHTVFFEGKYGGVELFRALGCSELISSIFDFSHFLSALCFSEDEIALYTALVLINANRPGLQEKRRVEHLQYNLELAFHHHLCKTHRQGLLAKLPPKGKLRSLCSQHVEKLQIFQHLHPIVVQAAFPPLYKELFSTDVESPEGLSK"}, "source": "PubChem BioAssay AID2551", "about": "(National Center for Advancing Translational Sciences (NCATS), 2010)", "note": "Among all 310,000 compounds or so, about 17,000 (5.5%) were called active. This list was built around the results that the source calls inconclusive (neither active nor inactive); the mix of calls is not that of the screen. Calls follow the shape of the dose curve; as a rule, active = well fitted inhibition curve with a large enough effect; inconclusive = small, poorly fitted or top-dose-only effect, or effect the other way; inactive = no such curve, though single readings can be large or run the other way. Where the call is inconclusive, the potency comes from a doubtful curve fit. % is scaled to controls: 0 for no effect and ±100 for the full control effect; potency is read from the fitted curve at half-maximal effect."}
{"molecular_target": "Nuclear receptor ROR-gamma (Mus musculus) (UniProt P51450)", "experiment": "qHTS for inhibitors of ROR gamma transcriptional activity; also: nearly all actives have a fitted effect of over 60% in size", "settings": "Drosophila S2 Gal4-RORgamma UAS-luciferase reporter, 20 h; activity change, negative = inhibition: at 53.6 µM (top of the series)", "method_in_brief": "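Luciferase reporter read in Schneider cells carrying Gal4-RORγ (mouse) and UAS-Photinus luciferase; cells given compound 1 h before 700 uM copper sulfate induction, then incubated 20 h at ambient temperature.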"}
{"smiles": "COc1ccc(O)c(/C=N/NC(=O)c2ccc(OCc3cccc(Br)c3)cc2)c1", "Potency": "active: 5.01 µM"}
{"smiles": "CC(CCc1ccco1)NC(=O)Cn1ncc2c1-c1ccccc1OC2", "note": "(stereo not drawn)", "Potency": "inconclusive: 31.6 µM [activator, single point]"}
{"smiles": "Oc1ccccc1Nc1nc(NCc2ccco2)c2ccccc2n1", "Potency": "inconclusive: 12.6 µM [activator, partial curve]"}
{"smiles": "O=S(=O)(NC1c2cccc3cccc(c23)C1Sc1ncccn1)c1ccc(Cl)cc1", "note": "(stereo not drawn)", "activity change, negative = inhibition": "inactive: -21% [at 10 µM]"}
{"smiles": "C=CCN1C(=O)c2cccc3c(N4CCCCC4)ccc(c23)C1=O", "Potency": "inconclusive: 10 µM [activator, partial curve]"}
{"smiles": "O=C(/C=C/c1ccco1)NC(=S)Nc1cccc([N+](=O)[O-])c1", "Potency": "inconclusive: 0.794 µM [inhibitor, single point]"}
{"smiles": "CC(=O)Nc1ccc(S(=O)(=O)NCCSCc2c(Cl)cccc2Cl)cc1", "Potency": "inconclusive: 28.2 µM [activator, single point]"}
{"smiles": "O=C(NCCCCCCNC(=O)c1ccccc1O)c1ccccc1O", "activity change, negative = inhibition": "inactive: 3.15%"}
{"smiles": "CCC(=O)Nc1ccc2nn(-c3ccc(F)cc3)nc2c1", "Potency": "inconclusive: 5.62 µM [activator, single point]"}
{"smiles": "Oc1ccc(/C=N/N2CCCCC2)cc1O", "activity change, negative = inhibition": "inactive: -28.4%"}
{"smiles": "O=C(c1cccs1)N1CCCC(c2nc3c(nnn3Cc3ccccc3Cl)c(=O)[nH]2)C1", "note": "(stereo not drawn)", "Potency": "inconclusive: 15.8 µM [activator, single point]"}
{"smiles": "Cc1ccc(C(=O)NCCCc2ccccc2)c(C)c1", "Potency": "inconclusive: 35.5 µM [inhibitor, single point]"}
{"smiles": "Cc1cnc(NC(=O)CC(C)c2ccccc2)s1", "note": "(stereo not drawn)", "Potency": "inconclusive: 35.5 µM [inhibitor, single point]"}
{"smiles": "Cc1ccc(S(=O)(=O)Oc2ccc(/C=N/NC(=O)c3c(Cl)cnn3C)cc2)cc1", "Potency": "inconclusive: 0.282 µM [activator, full curve, poor fit]"}
{"smiles": "COc1cc(-c2cc(C(=O)Nc3nc4ccccc4s3)c3ccccc3n2)cc(OC)c1OC", "activity change, negative = inhibition": "inactive: -11.4%"}
{"smiles": "CN(Cc1ccccc1)c1nc2c(c(=O)[nH]c(=O)n2C)n1CCSc1nc2ccccc2[nH]1", "Potency": "inconclusive: 8.91 µM [activator, partial curve]"}
{"smiles": "COc1ccc(-n2c(C)cc(C(=O)CN3C(=O)NC4(CCCc5sccc54)C3=O)c2C)cc1", "note": "(stereo not drawn)", "Potency": "inconclusive: 35.5 µM [activator, single point]"}
{"smiles": "COC(=O)c1ccc(NC(=O)CSCC(=O)OCC(=O)c2ccc(Br)cc2)cc1", "activity change, negative = inhibition": "inactive: -20.7%"}
{"smiles": "Cn1c(C(=O)N2CCCC(C(=O)NCCc3ccccc3)C2)cc2sccc21", "note": "(stereo not drawn)", "activity change, negative = inhibition": "inactive: 17.1%"}
{"smiles": "Cc1ccc2cccc(NC(=S)NC(=O)c3ccnn3C)c2n1", "Potency": "inconclusive: 89.1 µM [inhibitor, partial curve, poor fit]"}
{"smiles": "CC(C)(C)c1ccc(C(=O)NCc2cccnc2)cc1", "Potency": "inconclusive: 8.91 µM [activator, partial curve]"}
{"smiles": "CCC(=O)NC1(C(F)(F)F)C(=O)NC(C)=C1C#N", "note": "(stereo not drawn)", "Potency": "inconclusive: 10 µM [inhibitor, partial curve]"}
{"smiles": "C=CCn1c(SCC(=O)c2ccc(CNC(C)=O)o2)nc2ccccc2c1=O", "Potency": "inconclusive: 2.51 µM [inhibitor, single point]"}
{"smiles": "CCOc1ccc2nc(SCC(=O)Nc3cccc(S(=O)(=O)NC4=NCCCCC4)c3)[nH]c2c1", "Potency": "inconclusive: 35.5 µM [activator, single point]"}
{"smiles": "O=C1OCCC1Sc1nnc(-c2ccc(Br)cc2)o1", "note": "(stereo not drawn)", "Potency": "inconclusive: 12.6 µM [inhibitor, partial curve, poor fit]"}
{"smiles": "Cc1ccc(NC(=O)CCNC(=O)c2ccc([N+](=O)[O-])cc2)cc1C", "activity change, negative = inhibition": "inactive: 2.73%"}
{"smiles": "c1ccc(CCNc2nc3ccccc3s2)cc1", "Potency": "inconclusive: 15.8 µM [inhibitor, partial curve, poor fit]"}
{"smiles": "Cc1ccc(NC(=S)NCC2CCCO2)cc1C", "note": "(stereo not drawn)", "Potency": "inconclusive: 5.01 µM [inhibitor, full curve, poor fit]"}
{"smiles": "O=C(O)/C=C/C(=O)NCC1CCC(CNC(=O)/C=C/C(=O)O)CC1", "note": "(stereo not drawn)", "activity change, negative = inhibition": "inactive: -9.73%"}
{"smiles": "CCCCS(=O)(=O)/C=C\\C=C/S(=O)(=O)CCCC", "Potency": "active: 0.708 µM"}
{"smiles": "N#Cc1ccc(C(=O)N2CCN(c3ncccn3)CC2)cc1", "activity change, negative = inhibition": "inactive: 11.8%"}
{"smiles": "CCOC(=O)c1ccc(NC(=O)CSc2ncccn2)cc1", "Potency": "inconclusive: 14.1 µM [activator, single point]"}
{"smiles": "N#C/C(=C/c1ccco1)c1nc2ccccc2s1", "Potency": "active: 5.01 µM"}
{"smiles": "COC(=O)c1ccccc1NC(=O)CNC(=O)c1ccc(OC)cc1", "Potency": "inconclusive: 3.55 µM [activator, single point]"}
{"smiles": "N#CCCN(C(=O)Nc1ccc(Cl)c(Cl)c1)c1ccccc1", "Potency": "inconclusive: 31.6 µM [activator, single point]"}
{"smiles": "Oc1ccccc1CNc1cccc2cccnc12", "Potency": "inconclusive: 35.5 µM [inhibitor, single point]"}
{"smiles": "CCCCCC(=O)NC(=S)Nc1ccc(NC(=O)c2ccco2)cc1", "Potency": "active: 10 µM"}
{"smiles": "COc1cccc(-c2nc(CS(=O)CC(=O)O)c(C)o2)c1", "note": "(stereo not drawn)", "Potency": "inconclusive: 7.94 µM [inhibitor, partial curve]"}
{"smiles": "O=C(c1cnn2c(C(F)(F)F)cc(-c3cccs3)nc12)N1CCN(C(c2ccccc2)c2ccccc2)CC1", "Potency": "inconclusive: 3.98 µM [activator, single point]"}
{"smiles": "Cc1cccc2cc(C#N)c(NCc3ccccc3)nc12", "Potency": "active: 5.62 µM"}
{"smiles": "COc1cc(NC(=O)c2ccco2)c(OC)cc1NC(=O)CCC(=O)Nc1cc(C)cc(C)c1", "Potency": "inconclusive: 15.8 µM [inhibitor, partial curve, poor fit]"}
{"smiles": "COc1ccccc1Nc1nc(NCCCN(C)C)nc(N)c1[N+](=O)[O-]", "Potency": "inconclusive: 31.6 µM [inhibitor, single point]"}
{"smiles": "Cc1nn(CC(=O)c2ccccc2)c(=O)c2nn(-c3ccccc3F)c(C)c12", "Potency": "inconclusive: 0.631 µM [activator, single point]"}
{"smiles": "COc1ccc(CCNCC(O)Cn2c3ccccc3c3ccccc32)cc1OC", "note": "(stereo not drawn)", "Potency": "inconclusive: 35.5 µM [inhibitor, single point]"}
{"smiles": "CCn1c2ccccc2c2cc(NC(=O)CSc3nnc(-c4ccc(OC)cc4)n3N)ccc21", "Potency": "inconclusive: 12.6 µM [inhibitor, single point]"}
{"smiles": "COc1cccc(C(=O)NC2=NCCS2)c1", "Potency": "active: 10 µM"}
{"smiles": "COc1ccc(C(NC(=O)CNC(C)=O)C(=O)Nc2ccc(C(C)C)cc2)cc1", "note": "(stereo not drawn)", "Potency": "inconclusive: 20 µM [inhibitor, single point]"}
{"smiles": "CCOC(=O)C(C(C)=O)C(c1ccc(OCCC(C)C)cc1)C(C(C)=O)C(=O)OCC", "note": "(stereo not drawn)", "Potency": "inconclusive: 2.51 µM [activator, full curve, poor fit]"}
{"smiles": "CCCCc1c(C)c2cc(C)ccc2[nH]c1=O", "Potency": "inconclusive: 7.08 µM [activator, full curve, poor fit]"}
{"smiles": "CCCOC(=O)c1ccc(Nc2nc(C)cc(=O)[nH]2)cc1", "Potency": "inconclusive: 7.94 µM [activator, partial curve, poor fit]"}
{"smiles": "CCC(C)c1cc([N+](=O)[O-])cc([N+](=O)[O-])c1OC(=O)OC(C)C", "note": "(stereo not drawn)", "Potency": "inconclusive: 35.5 µM [inhibitor, single point]"}
{"smiles": "CC(=O)c1cccc(N=Cc2c(O)ccc3ccccc23)c1", "activity change, negative = inhibition": "inactive: -24.9%"}
{"smiles": "CCOC(=O)c1cc(C(=O)OCC)cc(-n2cc(O)c(C(=O)OCC)n2)c1", "Potency": "inconclusive: 35.5 µM [inhibitor, single point]"}
{"smiles": "CC(=O)c1ccc(N2CCN(C(=O)CCC(=O)Nc3ccc4nc(N5CCN(C)CC5)cc(C)c4c3)CC2)cc1", "activity change, negative = inhibition": "inactive: -0.268%"}
{"smiles": "CCOC(=O)c1sc(NC(=O)c2cccc(S(=O)(=O)N3c4ccccc4CC3C)c2)cc1C", "note": "(stereo not drawn)", "Potency": "inconclusive: 2.82 µM [activator, full curve, poor fit]"}
{"smiles": "Nc1c(S(=O)(=O)c2cccs2)c2nc3ccccc3nc2n1CCc1ccccc1", "Potency": "inconclusive: 3.55 µM [activator, partial curve]"}
{"smiles": "O=[N+]([O-])c1cccnc1NCc1cccs1", "activity change, negative = inhibition": "inactive: 29.1%"}
{"smiles": "C/C(=N/NC(=O)C(O)(c1ccccc1)c1ccccc1)c1ccc([N+](=O)[O-])o1", "Potency": "inconclusive: 15.8 µM [inhibitor, single point]"}
{"smiles": "COc1ccc(N2CCN(C(=O)CCCC3=NS(=O)(=O)c4ccccc4N3)CC2)cc1", "Potency": "inconclusive: 15.8 µM [activator, partial curve]"}
{"smiles": "COc1ccc(-c2oc3ncn(CCN4CCOCC4)c(=N)c3c2-c2ccc(OC)cc2)cc1", "activity change, negative = inhibition": "inactive: -31.1%"}
{"smiles": "CC(=O)Nc1ccc(NC(=S)NC(=O)c2ccc(C(C)(C)C)cc2)cc1", "Potency": "inconclusive: 35.5 µM [inhibitor, single point]"}
{"smiles": "Cc1nc2cc(NC(=O)c3ccc([N+](=O)[O-])s3)ccc2s1", "activity change, negative = inhibition": "inactive: -37.1%"}
{"smiles": "O=C(NCCc1ccccc1)c1ccc(Cl)nc1", "Potency": "inconclusive: 0.199 µM [inhibitor, full curve, poor fit]"}
{"smiles": "O=c1ccc(-c2ccccc2)nn1Cc1ccccc1F", "Potency": "inconclusive: 17.8 µM [activator, single point]"}
{"smiles": "Cc1[nH]n(-c2ccc(Cl)cc2)c(=O)c1/C=N/n1c(C)nc2ccccc2c1=O", "Potency": "inconclusive: 35.5 µM [inhibitor, single point]"}
{"smiles": "CN(CC(=O)Nc1ccc(Cl)cc1)c1ccc(S(=O)(=O)N2CCCCC2)cc1[N+](=O)[O-]", "Potency": "inconclusive: 17.8 µM [activator, single point]"}
{"smiles": "O=C1[C@@H]2Cc3c([nH]c4ccccc34)C(c3ccccc3)N2C(=O)CN1C1CCN(Cc2ccccc2)CC1", "note": "(stereo partly drawn)", "Potency": "active: 2.82 µM"}
{"smiles": "Cc1cc(C)c(S(=O)(=O)N/N=C/c2ccc([N+](=O)[O-])o2)c(C)c1", "Potency": "inconclusive: 20 µM [inhibitor, single point]"}
